PubChem BioAssay AID652272 | Drosophila RNAi Screening Center, 2013
In all, the deposit lists about 21,000 reagents; this is an unselected part of those that have a named target and a result. In the full data, 503 (2.4%) are marked active. 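Raw plate light values, not normalised; calls rest on replicate z-scores that were not deposited; hits include reporter decreases as well as increases.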 Reagents against one gene are numbered here. A plus sign joins genes that one reagent is predicted to hit. Reagent sequences are not shown. The record does not give: the amount of reagent, the time to read-out.

Purpose: 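Finding fly genes that regulate Hedgehog signal transduction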 (primary screen)
System: Drosophila clone 8 (Cl8) cells
Reagents: long dsRNA against Drosophila genes
Measured: 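Firefly light from a Hedgehog-responsive ptc promoter reporter and Renilla reference light, both read on a plate reader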
Direction: firefly Hh reporter signal: higher = more ptc reporter light; Renilla reference signal: higher = more Renilla control light
Call rule: 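Called a hit if the two-replicate mean z-score lies below -2 or above +3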
Meaning of the calls: active = hit: reporter lowered or raised; inactive = not a hit

target gene	dsRNA no.	firefly Hh reporter signal, replicate 1	firefly Hh reporter signal, replicate 2	firefly Hh reporter signal, replicate 3	Renilla reference signal, replicate 1	Renilla reference signal, replicate 2	call
Ac78C (GeneID 40333)	1	2.71e5			5956		inactive
Ac78C (GeneID 40333)	2	69514	1.10e5		1901	3140	inactive
Ac78C (GeneID 40333)	3	81572	1.43e5		2490	4032	inactive
CG13742 + CNT1	1	77340	58376		2056	4882	inactive
NT1 (GeneID 38558)	1	42656	53819		1888	4274	inactive
Rpn12R (GeneID 2768973)	1	1.29e5			4885	3523	inactive
CG15642 (GeneID 32476)	1	67152	1.93e5		1403	7104	inactive
B9d1 (GeneID 41888)	1	1.06e5	1.56e5		3680	4523	inactive
Droj2 (GeneID 41646)	1	90209	59148		3882	1840	inactive
dos (GeneID 38321)	1	41260	73253		1269	3181	inactive
dos (GeneID 38321)	2	69099	32889		1920	2497	inactive
Art7 (GeneID 37664)	1	73078	49826		1269	4229	inactive
CG42258 (GeneID 32196)	1	57400	1.72e5		2711	7770	inactive
CG42258 (GeneID 32196)	2	64685	1.62e5		2304	7191	inactive
Cda5 (GeneID 33158)	1	6.41e5	6.73e5	5.05e5	33763	5312	inactive
Cda5 (GeneID 33158)	2	1.38e5	69755		3259	1590	inactive
Cda5 (GeneID 33158)	3	1.35e5	93388		3382	1762	inactive
CG4849 (GeneID 43358)	1	46154	45650		1436	1865	inactive
ssp3 (GeneID 35149)	1	63842	61641		1621	4684	inactive
ssp3 (GeneID 35149)	2	87036	37672		2070	3915	inactive
CG12605 (GeneID 38468)	1	67384	54802		2050	3792	inactive
CG9132 (GeneID 2768881)	1	75047	84027		1114	1906	active
CG14568 (GeneID 40418)	1	1.37e5	1.66e5		4400	8978	inactive
rdog (GeneID 43450)	1	72999	89313		1696	2490	inactive
CG6928 (GeneID 39367)	1	1.19e5	51530		4187	2132	inactive
Acn (GeneID 35173)	1	1.00e5	66272		3906	2699	inactive
cyr (GeneID 31733)	1	1.15e5	2.97e5		4226	9675	inactive
cyr (GeneID 31733)	2	86722	3.40e5		3403	11892	inactive
cyr (GeneID 31733)	3	84822	2.72e5		3063	9664	inactive
CG34034 (GeneID 3885584)	1	59399	2.18e5		12598	4822	inactive
brk (GeneID 31665)	1	38049	2.31e5		1368	9124	inactive
CG9757 (GeneID 41662)	1	1.42e5	1.04e5		4525	2896	inactive
Gapdh2 (GeneID 32545)	1	78368	1.06e5		2172	5961	inactive
Surf1 (GeneID 44498)	1	17700	23744		3032	2394	inactive
Surf1 (GeneID 44498)	2	1.30e5	1.52e5		5376	5769	inactive
D (GeneID 39570)	1	71912			3281	2080	inactive
Spt5 (GeneID 53442)	1	81222	42003		1648	2960	inactive
Hsl (GeneID 37289)	1	1.26e5	64256		5024	2737	inactive
nAChRalpha6 (GeneID 34304)	1	5.48e5	1.74e5		27712	8154	inactive
nAChRalpha6 (GeneID 34304)	2	3.03e5	92096		14866	4513	inactive
nAChRalpha6 (GeneID 34304)	3	1.28e5	83849		4633	3090	inactive
GluRIA (GeneID 38742)	1	56343	76604		6205	5653	inactive
CG9083 + Tpc2	1	1.31e5	1.53e5		4992	5372	inactive
ND-B22 (GeneID 34747)	1	73157	37680		2620	5130	active
Hexo2 (GeneID 31808)	1	87122	3.07e5		2964	10324	inactive
lncRNA:CR43632 (GeneID 12798265)	1	40368	1.88e5		11293	4978	inactive
Cdc14 (GeneID 34067)	1	84128	40709		2130	5874	inactive
MED14 (GeneID 38073)	1	51565	36668		2752	1542	inactive
CG5171 (GeneID 34016)	1	70669	60336		2469	1851	inactive
DIP1 (GeneID 43981)	1	1.38e5	2.95e5		5115	12468	inactive
CG12111 (GeneID 31796)	1	1.13e5	3.92e5		3737	13088	inactive
CG13171 (GeneID 36323)	1	1.04e5	72672		2930	5490	inactive
Blos4 (GeneID 39219)	1	94038	73697	77417	8041	6672	inactive
CG17930 (GeneID 41979)	1	83370	61863		3603	2777	inactive
Datp (GeneID 318908)	1	5.62e5	2.02e5		26435	8172	inactive
Ir7f (GeneID 7354418)	1	60813	2.53e5		1736	9605	inactive
Eig71Ee (GeneID 39706)	1	1.96e5			9122	5498	inactive

Single entries from the list.
For “call”, B9d1 (GeneID 41888) has inactive
For “Renilla reference signal, replicate 1”, Cdc14 (GeneID 34067) reads 2130
Value for Eig71Ee (GeneID 39706) in “firefly Hh reporter signal, replicate 1”: 1.96e5
Value of CG5171 (GeneID 34016) in “Renilla reference signal, replicate 1”: 2469
Under “Renilla reference signal, replicate 1”, CG6928 (GeneID 39367) reads 4187
Under “firefly Hh reporter signal, replicate 2”, NT1 (GeneID 38558) reads 53819
